Assay results taken from paper PMC9532426, “Autophagy induction promoted by m6A reader YTHDF3 through translation upregulation of FOXO3 mRNA”.
The exact form of at least one protein or probe is not confirmed. A weaker result is weaker than the reference pair of the same experiment. At least one verdict rests on a figure or table, not on a statement of the authors. Tags and fusion partners may be left off the protein sequences shown.

Molecular target: T1, YTHDF3 (mouse) (UniProt Q8BYK6)
T1 sequence (looked up, limits assumed): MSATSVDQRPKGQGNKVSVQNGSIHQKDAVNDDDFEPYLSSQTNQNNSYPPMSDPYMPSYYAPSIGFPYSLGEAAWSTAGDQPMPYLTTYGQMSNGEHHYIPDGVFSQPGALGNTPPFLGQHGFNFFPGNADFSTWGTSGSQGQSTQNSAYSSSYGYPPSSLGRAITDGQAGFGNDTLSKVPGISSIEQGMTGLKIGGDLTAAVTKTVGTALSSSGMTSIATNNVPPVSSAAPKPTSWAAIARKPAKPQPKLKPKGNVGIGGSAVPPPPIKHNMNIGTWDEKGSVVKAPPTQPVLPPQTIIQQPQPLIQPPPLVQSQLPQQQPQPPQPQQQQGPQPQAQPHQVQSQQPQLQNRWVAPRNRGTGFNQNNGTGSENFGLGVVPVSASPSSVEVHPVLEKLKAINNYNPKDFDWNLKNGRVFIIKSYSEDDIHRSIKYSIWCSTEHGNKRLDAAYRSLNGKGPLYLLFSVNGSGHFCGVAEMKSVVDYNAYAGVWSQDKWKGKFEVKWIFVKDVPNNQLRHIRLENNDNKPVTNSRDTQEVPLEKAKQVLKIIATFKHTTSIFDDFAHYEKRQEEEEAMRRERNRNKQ
Experiment: EMSA
Conditions: LightShift Chemiluminescent RNA EMSA kit, 20 pmol RNA, 6 ug YTHDF3, room temperature 30 min, 6% TBE gel, 0.5x TBE, buffer salt and pH not stated, commercial protein, label: 5' biotin

Sequence	binding result	other results
CCGUAGUGAACUCAUG [Foxo3-CDS-m6A-biotin-RNAProbe 2]	–	binding result (m6A at A10): binds
CCCAGCAGAGACUGUUA [Foxo3-3'UTR-m6A-biotin-RNAProbe 5]	–	binding result (m6A at A11): binds
GGGGAACUUCACUGG [Foxo3-CDS-biotin-RNAProbe 3]	binds more weakly	–
CCCAGCAGAGACUGUUA [Foxo3-3'UTR-biotin-RNAProbe 5]	binds more weakly	–
GUGACUUGGACCUGGAC [Foxo3-CDS-biotin-RNAProbe 1]	binds more weakly	–
CAAGUGGACAGUGAUCC [Foxo3-3'UTR-biotin-RNAProbe 4]	binds more weakly	–
GGAACAGAACUCUAUAA [Foxo3-3'UTR-m6A-biotin-RNAProbe 6]	–	binding result (m6A at A9): binds
GGAACAGAACUCUAUAA [Foxo3-3'UTR-biotin-RNAProbe 6]	binds more weakly	–
CCGUAGUGAACUCAUG [Foxo3-CDS-biotin-RNAProbe 2]	binds more weakly	–
CAAGUGGACAGUGAUCC [Foxo3-3'UTR-m6A-biotin-RNAProbe 4]	–	binding result (m6A at A8): binds
